Experiment [1] deals with T1, GAL4 DB::NPR1 fusion protein (full-length Arabidopsis NPR1 bait) (Arabidopsis) (UniProt P04386+P93002). The experiment is described as follows: yeast two-hybrid screen, GAL4 DB::NPR1 bait, HIS3 and lacZ reporters, retested against pMC86 alone.
Experiment [2] concerns the target T1, GAL4 DB::NPR1 fusion protein (full-length Arabidopsis NPR1 bait) (Arabidopsis). The experiment is described as follows: yeast two-hybrid.

By UniProt entry, the sequences of proteins in these tests, tags left out. Where a name states a change or a piece, a line headed by the entry shows the natural chain unless it says otherwise.
UniProt P04386: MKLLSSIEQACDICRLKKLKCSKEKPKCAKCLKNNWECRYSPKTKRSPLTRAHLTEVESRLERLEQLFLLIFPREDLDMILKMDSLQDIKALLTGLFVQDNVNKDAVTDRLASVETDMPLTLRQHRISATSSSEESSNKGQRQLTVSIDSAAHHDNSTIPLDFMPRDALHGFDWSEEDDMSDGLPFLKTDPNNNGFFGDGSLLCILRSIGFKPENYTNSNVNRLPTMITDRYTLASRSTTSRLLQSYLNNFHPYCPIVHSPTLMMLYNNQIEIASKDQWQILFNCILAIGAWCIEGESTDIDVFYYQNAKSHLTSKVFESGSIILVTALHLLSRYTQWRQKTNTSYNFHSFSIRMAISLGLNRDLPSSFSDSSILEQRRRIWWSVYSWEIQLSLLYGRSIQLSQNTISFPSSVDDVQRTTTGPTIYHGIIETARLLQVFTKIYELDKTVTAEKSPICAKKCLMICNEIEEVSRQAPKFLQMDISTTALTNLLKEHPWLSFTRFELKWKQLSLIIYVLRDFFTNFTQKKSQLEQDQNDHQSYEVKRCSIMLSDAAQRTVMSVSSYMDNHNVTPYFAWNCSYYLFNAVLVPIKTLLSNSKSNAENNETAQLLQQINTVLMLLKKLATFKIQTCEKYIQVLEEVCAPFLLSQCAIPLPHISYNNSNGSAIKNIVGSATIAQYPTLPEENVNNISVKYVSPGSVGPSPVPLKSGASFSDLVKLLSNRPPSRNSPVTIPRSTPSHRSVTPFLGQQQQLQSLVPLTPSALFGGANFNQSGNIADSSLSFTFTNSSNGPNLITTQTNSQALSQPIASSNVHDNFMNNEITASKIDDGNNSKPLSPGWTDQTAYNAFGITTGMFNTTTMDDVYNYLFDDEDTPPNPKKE
UniProt P93002: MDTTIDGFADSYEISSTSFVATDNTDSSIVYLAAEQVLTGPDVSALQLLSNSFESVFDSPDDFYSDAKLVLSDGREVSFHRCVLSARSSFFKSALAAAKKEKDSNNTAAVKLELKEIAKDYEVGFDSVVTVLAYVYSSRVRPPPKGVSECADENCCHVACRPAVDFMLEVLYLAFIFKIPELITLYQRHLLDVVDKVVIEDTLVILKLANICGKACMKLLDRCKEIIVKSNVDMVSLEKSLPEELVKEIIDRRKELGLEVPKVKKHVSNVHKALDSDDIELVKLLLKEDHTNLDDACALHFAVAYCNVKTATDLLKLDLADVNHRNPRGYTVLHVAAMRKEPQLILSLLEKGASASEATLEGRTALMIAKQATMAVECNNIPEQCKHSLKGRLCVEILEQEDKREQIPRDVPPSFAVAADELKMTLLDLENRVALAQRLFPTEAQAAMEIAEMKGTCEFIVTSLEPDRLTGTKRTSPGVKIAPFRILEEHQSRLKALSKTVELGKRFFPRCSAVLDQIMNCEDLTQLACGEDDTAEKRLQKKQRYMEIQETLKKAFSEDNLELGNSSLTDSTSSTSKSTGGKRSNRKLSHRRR

No constants are given. Whether binding was seen depends on the method and setting. Some results given as binding are weak or reduced against the parent protein; the word gives no strength.

B1: PNI (proline-rich NPR1 interactor), rice cDNA library clone in pAD-GAL4 (protein, not shown: large carriers)
chain: MDATTTDATTAKRKRPAASDIADDAPTTVDEVSDAEVEEFYAILRRMRDATRRLGARPPPPRAPAWRPSFSWEDFADAPPKQAPPPPQQPADHERVAENATPPRRPAPGLDLNVEPPSDAPATPRSARAPA
For B1, the binding result in experiment [1] and in experiment [2] was “binds” each time.

B2: MN1, rice bZIP protein, original cDNA library clone in pAD-GAL4 (protein, not shown: large carriers)
chain: KNHQLENGHSGAVMASNSSDRSDRSDKLMDQKTMRRLAQNREAARKSRLRKKAYVQQLESSKLKLAQLEQELQKARQQGIFISSSGDQTHAMSGNGALTFDLEYTRWLEEQNKQINELRTAVNAHASDSDLRLIVDGIMAHYDEVFKVKGVAAKADVFHILSGMWKTPAERCFLWLGGFRPSELLKLLANHLEPLTEQQLLGLNNLQESSQQAEDALSQGMEALQQSLADTLAGSLASSGSSGNVANYMGQMAMAMGKLGTLENFLCQADNLRQQTLHQMQRILTIRQASRALLAIHDYFSRLRALSSLWLARPRE
In the case of B2, the binding result in experiment [1] and in experiment [2] was “binds” each time.

For the origin of these results see US6995306.
